According to paper PMC8241732:
Results are given in words; binding and its absence hold for the method and conditions named. Binding seen in cells or lysates may run through a third protein. Some results given as binding are weak or reduced against the parent protein; the word gives no strength.

By UniProt entry, the sequences of proteins in these tests, tags left out.
UniProt Q13485: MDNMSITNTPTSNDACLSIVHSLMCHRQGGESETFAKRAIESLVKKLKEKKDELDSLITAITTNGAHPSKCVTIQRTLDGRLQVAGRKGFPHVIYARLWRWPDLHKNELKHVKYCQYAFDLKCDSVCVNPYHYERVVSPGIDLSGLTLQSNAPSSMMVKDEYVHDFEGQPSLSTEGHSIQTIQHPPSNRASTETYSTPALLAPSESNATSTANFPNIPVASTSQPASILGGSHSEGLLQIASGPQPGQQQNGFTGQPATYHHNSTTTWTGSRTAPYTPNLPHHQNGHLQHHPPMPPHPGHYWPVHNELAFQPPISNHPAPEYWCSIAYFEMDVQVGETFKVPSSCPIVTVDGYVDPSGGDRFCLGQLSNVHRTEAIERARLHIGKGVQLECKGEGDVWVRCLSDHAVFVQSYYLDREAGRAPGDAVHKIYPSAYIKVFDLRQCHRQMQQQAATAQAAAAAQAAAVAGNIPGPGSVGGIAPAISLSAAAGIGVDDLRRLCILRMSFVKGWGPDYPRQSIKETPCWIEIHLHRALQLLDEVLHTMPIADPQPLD
UniProt Q13547: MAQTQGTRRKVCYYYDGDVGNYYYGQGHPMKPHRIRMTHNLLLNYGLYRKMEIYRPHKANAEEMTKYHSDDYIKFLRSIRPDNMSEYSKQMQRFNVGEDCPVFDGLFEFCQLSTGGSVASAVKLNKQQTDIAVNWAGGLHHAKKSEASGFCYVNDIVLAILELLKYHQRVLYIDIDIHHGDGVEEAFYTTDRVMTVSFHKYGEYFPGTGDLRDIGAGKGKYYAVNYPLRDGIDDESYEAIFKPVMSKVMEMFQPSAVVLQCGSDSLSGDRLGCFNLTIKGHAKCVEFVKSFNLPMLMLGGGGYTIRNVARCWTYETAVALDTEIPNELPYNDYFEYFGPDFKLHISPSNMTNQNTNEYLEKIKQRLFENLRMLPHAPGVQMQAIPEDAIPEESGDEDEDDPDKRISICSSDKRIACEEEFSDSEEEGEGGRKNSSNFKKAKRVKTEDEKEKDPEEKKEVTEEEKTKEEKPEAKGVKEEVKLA

Columns and labels:
2×Flag-Smad4 = 2×Flag-Smad4 (UniProt Q13485); assay: co-IP; HNPC cells co-transfected with pCDNA3-2×Flag-Smad4 and pCDNA3-Myc-HDCA1 (and empty vectors), 48 h; IP with anti-Flag agarose and anti-Myc agarose; blots with anti-Flag and anti-Myc
[1] = biological target: Smad4 (human (endogenous in IVD tissue of a patient)) (UniProt Q13485); assay: co-IP; IP products of anti-Smad4 and IgG from degenerative IVD tissue (Pfirrmann grade IV) lysate; immunoblots for Smad4, pSmad1/5/8 and HDAC1

## Myc-HDAC1 (from UniProt Q13547 1-482)
2×Flag-Smad4
  binding: binds

## HDAC1 (histone deacetylase 1) (from UniProt Q13547 1-482)
[1]
  binding: binds
